The results in this text go back to publication PMC10126281.

Protein sequences, listed by entry. Tags and fused reporters are not part of them. Lines headed by an entry give the natural chain unless they say otherwise; changes in a name come on top.
UniProt F4HUU5: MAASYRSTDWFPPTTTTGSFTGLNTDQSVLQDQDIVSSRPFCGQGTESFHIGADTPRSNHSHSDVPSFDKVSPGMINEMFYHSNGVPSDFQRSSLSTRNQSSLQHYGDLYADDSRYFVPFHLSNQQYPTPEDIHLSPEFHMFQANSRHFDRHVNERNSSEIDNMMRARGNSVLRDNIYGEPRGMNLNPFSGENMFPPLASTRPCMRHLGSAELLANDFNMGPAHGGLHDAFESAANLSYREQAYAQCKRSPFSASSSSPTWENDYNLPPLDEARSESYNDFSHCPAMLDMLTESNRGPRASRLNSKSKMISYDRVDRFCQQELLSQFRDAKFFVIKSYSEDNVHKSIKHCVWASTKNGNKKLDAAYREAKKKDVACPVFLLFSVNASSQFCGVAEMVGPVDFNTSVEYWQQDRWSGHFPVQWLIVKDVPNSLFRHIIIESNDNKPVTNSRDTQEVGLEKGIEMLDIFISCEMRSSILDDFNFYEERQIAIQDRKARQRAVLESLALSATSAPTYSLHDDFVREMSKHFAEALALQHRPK

Experiment [1] concerns the target T1, mYFP-ECT1 (Arabidopsis thaliana) (UniProt Q3MK94).
T1 sequence: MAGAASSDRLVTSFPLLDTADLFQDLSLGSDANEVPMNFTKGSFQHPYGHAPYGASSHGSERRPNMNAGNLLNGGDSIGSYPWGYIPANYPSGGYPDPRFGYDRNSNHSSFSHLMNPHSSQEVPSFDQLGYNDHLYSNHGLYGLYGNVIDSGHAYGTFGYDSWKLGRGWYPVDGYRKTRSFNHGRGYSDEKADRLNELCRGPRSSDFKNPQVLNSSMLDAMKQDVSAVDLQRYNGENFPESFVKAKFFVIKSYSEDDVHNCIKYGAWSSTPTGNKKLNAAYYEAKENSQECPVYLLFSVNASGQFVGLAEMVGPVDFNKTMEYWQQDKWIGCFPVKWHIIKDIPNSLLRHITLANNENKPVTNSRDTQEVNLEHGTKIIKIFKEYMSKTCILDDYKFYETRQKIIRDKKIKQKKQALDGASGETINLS
The experiment is described as follows: co-IP; ECT9-FLAG and mYFP-ECT1 co-expressed in N. benthamiana leaves for 48 h; lysis buffer 50 mM Tris-HCl pH 7.4, 150 mM NaCl, 0.2% NP40, 0.1% Triton-100, 20 mM DTT; GFP-Trap_A beads 2 h at 4 °C; immunoblot with anti-GFP and anti-FLAG.

Experiment [2] addresses nLUC-ECT9 (EVOLUTIONARILY CONSERVED C-TERMINAL REGION 9) (Arabidopsis thaliana) (UniProt F4HUU5). The experiment is described as follows: split reporter; Split Luciferase Complementation Assay (SLCA): nLUC-ECT9 combined with cLUC fusions of the other 12 Arabidopsis YTH family members; host and conditions not told.

No constants are given. Whether binding was seen depends on the method and setting. Binding seen in cells or lysates may run through a third protein. Binding can be weak; no strength is given. Sequences can lack the tags named with a protein.

For ECT9-FLAG (Arabidopsis thaliana), in experiment [1], the binding entry is on record as “binds”.

B1: cLUC-ECT1 (EVOLUTIONARILY CONSERVED C-TERMINAL REGION 1) (protein, UniProt Q3MK94 1-428)
chain: MAGAASSDRLVTSFPLLDTADLFQDLSLGSDANEVPMNFTKGSFQHPYGHAPYGASSHGSERRPNMNAGNLLNGGDSIGSYPWGYIPANYPSGGYPDPRFGYDRNSNHSSFSHLMNPHSSQEVPSFDQLGYNDHLYSNHGLYGLYGNVIDSGHAYGTFGYDSWKLGRGWYPVDGYRKTRSFNHGRGYSDEKADRLNELCRGPRSSDFKNPQVLNSSMLDAMKQDVSAVDLQRYNGENFPESFVKAKFFVIKSYSEDDVHNCIKYGAWSSTPTGNKKLNAAYYEAKENSQECPVYLLFSVNASGQFVGLAEMVGPVDFNKTMEYWQQDKWIGCFPVKWHIIKDIPNSLLRHITLANNENKPVTNSRDTQEVNLEHGTKIIKIFKEYMSKTCILDDYKFYETRQKIIRDKKIKQKKQALDGASGETINLS
With B1, the binding entry in experiment [2] is “binds”.

B2: cLUC fusion of ECT3 (protein, UniProt F4K1Z0 1-495)
chain: MANPDHVSDVLHNLSIDPTTKALAPDSETKLQGAYGGNGNDFLLNDELVEATKIGKPSLLSKDGGVTKDKGSNLKKLGYQSAAYNAKGSYGKGAYAYGYYPPAYQYPRHGYTGSYASGKTNLQYQYLTQQGRSAGNGQSYGGYMDNIYSNYGMCGPYTNGYGYGSYGYDSWKYMPNWYAVNNTYKPRNGYHGYGKENIEGLNEMNRGPRAKGFNSQDGSKVMAVSLKEQRVTETEKLSEDVSLLDPKDYNKIDFPETYTEAKFYVIKSYSEDDIHKSIKYSVWSSTPNGNKKLDASYNEAKQKSDGCPVFLLFSVNTSGQFVGLAEMVGPVDFNKTVEYWQQDKWIGCFPVKWHFVKDIPNSSLRHITLENNENKPVTNSRDTQEVKLEQGIKVIKIFKDHASKTCILDDFEFYENRQKIIQERKSKHLQIKKQTLVANADKGVMSKINLVKPQESTTASEDAAALGVAAEVTKESKVVKETELPVEKNAVATAC
As for B2, the binding result in experiment [2] is on record as “no binding”.

B3: cLUC fusion of ECT4 (protein, UniProt A0A1P8AS03 1-605)
chain: MSTVAPPADQAADVLKKLSLDSKSRTLEIPEPTKKTGVYQYGAMDSNGQVPSFDRSLSPMLPSDALDPSVFYVPNVYQQPYYYGYGSDYTGYTNSESVDMTSGAYGENASLVYPQGYGYAAFPYSPATSPAPQLGGDGQLYGAQQYQYPFPLTASSGPFASSVPASTQSKLSTNKAANSASAGIPKGMNGSAPVKPLNQSALYGNSALGGGLAAGYQDPRYSYDGFYTPVSWHDGSNFSDVQRSVSGSGVASSYSKANNNVPATRNQNSSSNSHYTSMYQPASMTGYAAQGYYDRVSPNKSYGQYGSTVRSGMGYGSSGYGSRTNERGWLNTDNKYRSRGRGNSYFYGNENIDGLNELNRGPRAKGTKATEEVSSEEVKKQTFDESNTEETVTCVLPDREECNRDDFPVEYKDAKFFIIKSYSEDDVHKSIKYNVWASTPNGNKKLDAAYQEAQQKSSGCPVFLFFSVNASGQFIGLAEMKGPVDFNKNIEYWQQDKWTGSFPLKWHILKDVPNSLLKHITLEYNENKPVTNSRDTQEVKLEQGLKVVKIFKEHNSKTCILDDFSFYEARQKTILEKKAKQQQSQKQVWEGKTNDEKPGTVDSTM
In the case of B3, in experiment [2], the binding entry is reported as “no binding”.

B4: cLUC fusion of ECT2 (protein, UniProt Q9LJE5 1-667)
chain: MATVAPPADQATDLLQKLSLDSPAKASEIPEPNKKTAVYQYGGVDVHGQVPSYDRSLTPMLPSDAADPSVCYVPNPYNPYQYYNVYGSGQEWTDYPAYTNPEGVDMNSGIYGENGTVVYPQGYGYAAYPYSPATSPAPQLGGEGQLYGAQQYQYPNYFPNSGPYASSVATPTQPDLSANKPAGVKTLPADSNNVASAAGITKGSNGSAPVKPTNQATLNTSSNLYGMGAPGGGLAAGYQDPRYAYEGYYAPVPWHDGSKYSDVQRPVSGSGVASSYSKSSTVPSSRNQNYRSNSHYTSVHQPSSVTGYGTAQGYYNRMYQNKLYGQYGSTGRSALGYGSSGYDSRTNGRGWAATDNKYRSWGRGNSYYYGNENNVDGLNELNRGPRAKGTKNQKGNLDDSLEVKEQTGESNVTEVGEADNTCVVPDREQYNKEDFPVDYANAMFFIIKSYSEDDVHKSIKYNVWASTPNGNKKLAAAYQEAQQKAGGCPIFLFFSVNASGQFVGLAEMTGPVDFNTNVEYWQQDKWTGSFPLKWHIVKDVPNSLLKHITLENNENKPVTNSRDTQEVKLEQGLKIVKIFKEHSSKTCILDDFSFYEVRQKTILEKKAKQTQKQVSEEKVTDEKKESATAESASKESPAAVQTSSDVKVAENGSVAKPVTGDVVANGC
For B4, the binding entry in experiment [2] is listed as “no binding”.
